The values below come from publication PMC7705682.

Protein sequences, listed by entry. Tags and fused reporters are not part of them.
UniProt P62140: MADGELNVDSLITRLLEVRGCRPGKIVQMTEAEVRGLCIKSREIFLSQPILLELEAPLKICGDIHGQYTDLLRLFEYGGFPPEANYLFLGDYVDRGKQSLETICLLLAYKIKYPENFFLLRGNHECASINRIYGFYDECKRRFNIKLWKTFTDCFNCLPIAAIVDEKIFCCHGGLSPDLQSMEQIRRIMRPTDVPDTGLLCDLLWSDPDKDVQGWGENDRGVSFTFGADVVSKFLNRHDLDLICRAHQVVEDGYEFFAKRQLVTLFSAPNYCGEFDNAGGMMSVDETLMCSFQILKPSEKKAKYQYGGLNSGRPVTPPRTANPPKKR

For this test, the target named is T1, SH2D4A-myc-Flag (tetracycline-induced, stable HLF cells) (UniProt Q9H788).
T1 sequence: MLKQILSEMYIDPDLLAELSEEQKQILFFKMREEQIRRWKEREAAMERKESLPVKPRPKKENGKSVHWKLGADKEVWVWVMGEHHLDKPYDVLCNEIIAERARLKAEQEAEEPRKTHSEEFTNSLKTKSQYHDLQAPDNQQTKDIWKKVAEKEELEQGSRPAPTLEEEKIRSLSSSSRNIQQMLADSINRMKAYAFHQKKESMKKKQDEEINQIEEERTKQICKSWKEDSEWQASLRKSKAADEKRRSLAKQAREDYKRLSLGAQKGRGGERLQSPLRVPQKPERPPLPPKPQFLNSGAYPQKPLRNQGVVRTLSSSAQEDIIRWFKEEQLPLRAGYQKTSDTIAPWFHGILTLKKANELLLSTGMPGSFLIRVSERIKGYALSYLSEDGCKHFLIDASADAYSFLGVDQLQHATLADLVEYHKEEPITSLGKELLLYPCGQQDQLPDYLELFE
The experiment in a line: affinity purification with mass spectrometry; Lysate (NP-40 buffer) of HLF cells with tetracycline-induced Flag-tagged SH2D4A, precipitated with Flag M2 antibody on IP-Matrix overnight at 4 °C; eluate analysed by LC-MS/MS; uninduced cells as control.

Results are given in words; binding and its absence hold for the method and conditions named. In cells and extracts the contact can be indirect. Here binding means that the protein was enriched with, or labelled near, the bait; the list need not be complete. Tags and fused reporters may be left off the sequences shown.

Regarding “protein phosphatase 1 catalytic subunit beta (PPP1CB), endogenous in HLF cells (from UniProt P62140 1-327) (enzyme)”, the binding entry is “binds”.
